Where “and” joins values, the source holds several entries; their conditions need not be identical. Identical values can stand only once. The campaign covered roughly 230,000 compounds. About 310 (0.13%) were called active. This list was built around the results that the source calls inconclusive (neither active nor inactive); the mix of calls is not that of the screen. Calls come from the whole dose curve; as a rule, active = well fitted activation curve with a large enough effect; inconclusive = small, poorly fitted or top-dose-only effect; inactive = no such curve, though single readings can be large or run the other way. Potencies of inconclusive entries are doubtful fits and often do not repeat. The source holds several records for some structures; these can differ, active in one and inactive in another.
Experiment: qHTS Multiplex Assay to Identify Dual Action Probes in a Cell Model of Huntington: Cytoprotection (ATP); note: nearly all actives have a fitted effect of over 45% in size;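 for cytoprotection (ATP increase): toxic huntingtin expression switched on by the ecdysone agonist tebufenozide; % of control where 0% means no effect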
Settings: PC12 HTT-Q103 induced, ATP luminescence, 40 h; cytoprotection (ATP increase): at 56.4 µM (top of the series)
How it was run: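 Rat PC12, Q103 Htt exon1-GFP fusion, ecdysone promoter; tebufenozide inducer 100 nM final; compound titration; qHTS, 1500 cells/well; ATPlite luminescent read.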
Potency is the fitted concentration of half-maximal effect.

Row | SMILES | Potency | cytoprotection (ATP increase)
1 | O=P1(N(CCCl)CCCl)NCCCO1 (configuration not stated) | inconclusive: 15.8 µM [activator, single point] | –
2 | c1ccc2c(c1)sc1ccccc12 | inconclusive: 35.5 µM [activator, single point] | –
3 | c1ccc(N2CC[C@@]3(CCCNC3)C2)nc1 | inconclusive: 35.5 µM [activator, single point] | –
4 | CCN(CC)C(=O)N[C@@H]1C[C@H]2c3cccc4[nH]cc(c34)C[C@@H]2N(C)C1 | inconclusive: 0.112 µM [activator, partial curve, poor fit] | –
5 | Oc1ccccc1-c1ccccc1 | inconclusive: 0.794 µM [activator, full curve, poor fit] | –
6 | C[C@]12C=CC(=O)C=C1CC[C@@H]1C2CC[C@]2(C)OC(=O)CCC12 (some centres not stated) | inconclusive: 0.0032 µM [activator, full curve, poor fit] | –
7 | C[N+]1(C)[C@@H]2CC(OC(=O)[C@@H](CO)c3ccccc3)C[C@@H]1[C@H]1O[C@H]12 (some centres not stated) | inconclusive: 0.794 µM [activator, full curve, poor fit] | –
8 | CC(N)C(O)c1ccc(O)c(O)c1 (configuration not stated) | inconclusive: 0.005 µM [activator, full curve, poor fit] | –
9 | CC1CCN(C(=O)CCl)CC1 | – | inactive: -8.76% [at 10 µM]
10 | C[C@](N)(CCP(=O)(O)O)C(=O)O | inconclusive: 0.794 µM [activator, single point] | –
11 | C=CCN1C(=O)/C(=C\c2ccc(N3CCOCC3)o2)C(=O)NC1=S | – | inactive: 10.2% [at 10 µM]
12 | CC(C)(C)NC[C@@H](O)COc1cccc2[nH]c(C#N)cc12 | inconclusive: 1.41 µM [activator, single point] | –
13 | CN(C)[C@@H]1C(=O)C(C(N)=O)=C(O)[C@]2(O)C(=O)C3=C(O)c4c(O)cccc4[C@@](C)(O)[C@H]3[C@H](O)[C@@H]12 | – | inactive: 2.12% [at 40.3 µM]
14 | CN(C(=O)Cc1ccccc1)[C@H](CN1CCCC1)c1ccccc1 | inconclusive: 0.316 µM [activator, partial curve] | –
15 | C[C@]12CC[C@H](OS(=O)(=O)O)CC1=CCC1C2CC[C@]2(C)C(=O)CC[C@@H]12 (some centres not stated) | inconclusive: 0.501 µM [activator, partial curve, poor fit] | –
16 | O=C1C[C@H]2OCCC=C3CN4CC[C@@]56c7ccccc7N1[C@@H]5[C@H]2[C@H]3C[C@@H]46 | inconclusive: 25.1 µM [activator, partial curve] | –
17 | COc1ccc(C)cc1NC1=NC(C)(C)CS1 | inconclusive: 0.316 µM [activator, partial curve] | –
18 | O=C(CN1CC=C(c2ccccc2)CC1)Nc1cc(Cl)ccc1Cl | inconclusive: 4.47 µM [activator, single point] | –
19 | CC(C)(C)c1cc(O)ccc1O | active: 31.6 µM and inconclusive: 14.1 µM [activator, partial curve, poor fit] | –
20 | COc1cccc(OC)c1C1=NCC(=O)Nc2c1oc1ccc(Br)cc21 | – | inactive: -59.2% [at 10 µM]
21 | O=C(OCCN1CCOCC1)C1(c2ccccc2)CCCC1 | inconclusive: 0.447 µM [activator, single point] | –

Row | SMILES | Potency | cytoprotection (ATP increase)
22 | CC(C)N(CC[C@@](C(N)=O)(c1ccccc1)c1ccccn1)C(C)C | inconclusive: 0.1 µM [activator, partial curve, poor fit] | –
23 | O=C(Oc1ccccc1)N1CCC2(CCCN(Cc3ccccc3)C2)CC1 | inconclusive: 0.708 µM [activator, full curve, poor fit] | –
24 | CCC(=O)c1cc(F)c(N2CCN(CC)CC2)cc1C | – | inactive: 5.26%
25 | NNc1nncn1N | – | inactive: -0.896% [at 10 µM]
26 | C[C@H]1C(=O)O[C@@H]2CCN3CC=C(COC(=O)[C@@](C)(O)[C@@]1(C)O)[C@H]23 | inconclusive: 3.16 µM [activator, single point] | –
27 | C[C@@H](Cc1cccc(C(F)(F)F)c1)NCCCc1ccccc1 | inconclusive: 14.1 µM [activator, partial curve] | –
28 | Cn1c(O)c(C=NCCCNC2CCCCC2)c(=O)n(C)c1=O | inconclusive: 1.26 µM [activator, single point] | –
29 | CCCCC/C=C\C/C=C\C/C=C\CCCCCCC(=O)NCCO | inconclusive: 35.5 µM [activator, single point] | –
30 | CC1(C)N=C(c2ccccc2)[C@@H]2C(c3ccc([N+](=O)[O-])cc3)N21 (some centres not stated) | inconclusive: 5.62 µM [activator, single point] | –
31 | NN=C(N)N | inconclusive: 0.1 µM [activator, full curve] | –
32 | OC(c1ccccc1)(c1ccccc1)C1CCNCC1 | inconclusive: 2.82 µM [activator, partial curve] | –
33 | C[C@@H]1OC=C2[C@@H](O)[C@H]3O[C@H]3C(=O)[C@@]23[C@H]1[C@H]1C2=C([C@@H](O)[C@H]4O[C@@H]4C2=O)[C@@H]3O[C@@H]1C | active: 5.62 µM | –
34 | C=C1C([C@@]2(C)C(OC(C)=O)CC(=O)O[C@@](C)(COC(C)=O)C2CC(=O)OC)C(OC=O)C(OC(=O)C(OC(C)=O)C(C)CC)[C@]2(C)C(c3ccoc3)CC(=O)C12O (some centres not stated) | inconclusive: 1.26 µM [activator, single point] | –
35 | CN1C(=O)/C(=C\c2ccc(N3CCCCC3)o2)C(=O)NC1=S | – | inactive: -18.9% [at 10 µM]
36 | CCC1(C)CC(=O)NC(=O)C1 | inconclusive: 0.891 µM [activator, partial curve, poor fit] | –
37 | CCCC(C)(COC(N)=O)COC(=O)NC(C)C (configuration not stated) | inconclusive: 2.82 µM [activator, partial curve] | –
38 | CN1CC[C@@]2(CCCN(C(=O)Oc3ccccc3)C2)C1 | inconclusive: 39.8 µM [activator, single point] | –
39 | O=C(c1ccco1)N1CCC2(CC1)CN(Cc1ccncc1)C2 | inconclusive: 35.5 µM [activator, partial curve, poor fit] | –
40 | COc1cccc([C@@]2(O)CCCC[C@@H]2CN(C)C)c1 | inconclusive: 5.01 µM [activator, single point] | –
41 | CCC(=O)O[C@H]1CC[C@H]2[C@@H]3CCC4=CC(=O)CC[C@]4(C)[C@H]3CC[C@]12C | inconclusive: 2.82 µM [activator, full curve] | –
42 | C[C@H]1CC[C@@]2(NC1)O[C@@H]1C[C@H]3[C@@H]4CC[C@@H]5C[C@@H](O)CC[C@@]5(C)[C@@H]4CC[C@]3(C)[C@@H]1[C@@H]2C | inconclusive: 2 µM [activator, partial curve, poor fit] | –

Row | SMILES | Potency | cytoprotection (ATP increase)
43 | c1csc(CN2CC[C@@]3(CCCNC3)C2)n1 | inconclusive: 0.0056 µM [activator, full curve, poor fit] | –
44 | O=C1CCO1 | inconclusive: 11.2 µM [activator, partial curve, poor fit] | –
45 | O=C(COc1ccccc1)c1cn(Cc2ccccc2)c2ccccc12 | inconclusive: 1.12 µM [activator, single point] | –
46 | C[C@@]12CC[C@H](O)C[C@@H]1CC[C@H]1[C@@H]2C[C@@H](O)[C@]2(C)[C@@H](C3=CC(=O)OC3)CC[C@]12O | inconclusive: 7.08 µM [activator, partial curve, poor fit] | –
47 | O=C1C2(Cl)C3(Cl)C4(Cl)C(Cl)(Cl)C5(Cl)C3(Cl)C1(Cl)C5(Cl)C24Cl (configuration not stated) | inconclusive: 12.6 µM [activator, single point] | –
48 | COc1cc2c3cc1Oc1cc(ccc1O)C[C@@H]1c4c(cc(OC)c(O)c4Oc4cccc(c4)C[C@H]3N(C)CC2)CC[N+]1(C)C | inconclusive: 1.41 µM [activator, partial curve, poor fit] | –
49 | Cc1ccc2c(c1)[C@@H]1CN(C)CC[C@H]1N2 | – | inactive: 22.1%
50 | CON(C)C(=O)Nc1ccc(Cl)cc1 | – | inactive: 5.64% [at 1.9 µM]
51 | Oc1ccc2c3c1O[C@H]1c4oc5ccccc5c4C[C@]4(O)[C@H](C2)N(CC2CC2)CC[C@@]314 | inconclusive: 0.141 µM [activator, full curve] | –
52 | O=C(c1ccc(N2CCCCCC2)c([N+](=O)[O-])c1)N1CCC2(CC1)OCCO2 | inconclusive: 0.891 µM [activator, partial curve] | –
53 | C1CC2OC2CC1C1CO1 (configuration not stated) | inconclusive: 31.6 µM [activator, single point] | –
54 | O=S1(=O)N(CCN2CC=C(c3c[nH]c4cc(F)ccc34)CC2)c2cccc3c2N1CCC3 | – | inactive: 2.99% [at 1.9 µM]
55 | NC[C@H](CS(=O)(=O)O)c1ccc(Cl)cc1 | inconclusive: 0.562 µM [activator, single point] | –
56 | C=CC1CN2CCC1CC2C(O)c1ccnc2ccccc12 (configuration not stated) | inconclusive: 0.141 µM [activator, partial curve] | –
57 | CC[C@]1(c2cccc(O)c2)CCCCN(C)C1 | inconclusive: 2.82 µM [activator, single point] | –
58 | CC(=O)OC1CC2C(C)(C)C(=O)C=C[C@]2(C)C2CC[C@]3(C)C(=CC(=O)OC3c3ccoc3)[C@]12C (some centres not stated) | inconclusive: 31.6 µM [activator, single point] | –
59 | C#CCN(C)[C@H](C)Cc1ccccc1 | inconclusive: 1.26 µM [activator, partial curve, poor fit] | –
60 | O=C(CN1CCCCC1)c1ccccc1F | – | inactive: -23.3%
61 | C[C@H](NC(C)(C)C)C(=O)c1cccc(Cl)c1 | inconclusive: 0.224 µM [activator, full curve, poor fit] | –
62 | COc1ccc2c3c1O[C@H]1C(=O)CC[C@H]4[C@@H](C2)N(C)CC[C@]314 | inconclusive: 0.0891 µM [activator, full curve, poor fit] | –
